Article PMC9458560
Results are given in words; binding and its absence hold for the method and conditions named. In cells and extracts the contact can be indirect. These calls come from enrichment with a bait or labelling near it, and not all partners need be listed. For some assays here: No binding means not detected with the bait. Sequences can lack the tags named with a protein.

The chains behind the UniProt entries cited, without tags or fusion partners.
UniProt P14835: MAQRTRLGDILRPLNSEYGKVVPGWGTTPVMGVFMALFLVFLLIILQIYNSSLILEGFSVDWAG
UniProt P05429: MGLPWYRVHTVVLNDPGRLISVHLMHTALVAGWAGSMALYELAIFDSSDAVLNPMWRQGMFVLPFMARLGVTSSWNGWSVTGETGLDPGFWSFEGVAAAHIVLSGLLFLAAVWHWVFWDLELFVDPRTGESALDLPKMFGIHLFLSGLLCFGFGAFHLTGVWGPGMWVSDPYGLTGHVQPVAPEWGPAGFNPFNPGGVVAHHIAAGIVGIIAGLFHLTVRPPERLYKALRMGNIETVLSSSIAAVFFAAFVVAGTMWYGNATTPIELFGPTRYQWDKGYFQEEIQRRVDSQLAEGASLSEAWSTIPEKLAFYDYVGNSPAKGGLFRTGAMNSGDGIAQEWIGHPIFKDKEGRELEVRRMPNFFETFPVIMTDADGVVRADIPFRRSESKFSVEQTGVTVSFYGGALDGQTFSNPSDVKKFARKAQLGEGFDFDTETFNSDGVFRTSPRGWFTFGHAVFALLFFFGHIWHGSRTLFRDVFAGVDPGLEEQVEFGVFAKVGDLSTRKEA

T1: N-terminally FLAG-tagged Psb34 (Synechocystis sp. PCC 6803) (UniProt P74067)
T1 sequence: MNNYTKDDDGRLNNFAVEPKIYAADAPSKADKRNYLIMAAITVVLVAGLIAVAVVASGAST

T2: C-terminal FLAG-tagged Psb28 (Synechocystis sp. PCC 6803) (UniProt Q55356)
T2 sequence: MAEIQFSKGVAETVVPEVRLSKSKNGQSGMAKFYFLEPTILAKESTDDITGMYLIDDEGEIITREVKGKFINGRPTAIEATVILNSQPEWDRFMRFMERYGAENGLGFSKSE

B1: Psb34 protein (encoded by the ssl1498 gene) (protein, UniProt P74067 1-61)
chain: MNNYTKDDDGRLNNFAVEPKIYAADAPSKADKRNYLIMAAITVVLVAGLIAVAVVASGAST
B2: Psb28 (protein, UniProt Q55356 1-112)
chain: MAEIQFSKGVAETVVPEVRLSKSKNGQSGMAKFYFLEPTILAKESTDDITGMYLIDDEGEIITREVKGKFINGRPTAIEATVILNSQPEWDRFMRFMERYGAENGLGFSKSE
B3: Psb27 (protein, UniProt P74367 25-134)
chain: CDSGTGLTGNYSQDTLTVIATLREAIDLPQDAPNRQEVQDTARGQINDYISRYRRKGDAGGLKSFTTMQTALNSLAGYYTSYGARPIPEKLKKRLQLEFTQAERSIERGV
B4: PsbO (protein, UniProt P10549 29-274)
chain: VDKSQLTYDDIVNTGLANVCPEISSFTRGTIEVEPNTKYFVSDFCMEPQEYFVKEEPVNKRQKAEYVKGKVLTRQTTSLEQIRGSIAVGADGTLTFKEKDGIDFQPITVLLPGGEEVPFFFTVKNFTGTTEPGFTSINSSTDFVGDFNVPSYRGAGFLDPKARGLYTGYDNAVALPSAADKFRTNKKETPLGKGTLSLQVTQVDGSTGEIAGIFESEQPSDTDLGAKEPLDVKVRGIFYGRVDTDV
B5: PsbV (protein, UniProt Q55013 26-160)
chain: VELTESTRTIPLDEAGGTTTLTARQFTNGQKIFVDTCTQCHLQGKTKTNNNVSLGLADLAGAEPRRDNVLALVEFLKNPKSYDGEDDYSELHPNISRPDIYPEMRNYTEDDIFDVAGYTLIAPKLDERWGGTIYF
B6: HliA (protein, UniProt P73183 1-70)
chain: MTTRGFRLDQDNRLNNFAIEPEVYVDSSVQAGWTKYAEKMNGRFAMIGFASLLIMEVVTGHGVIGWLNSL
B7: HliB (protein, UniProt P73429 1-70)
chain: MTSRGFRLDQDNRLNNFAIEPPVYVDSSVQAGWTEYAEKMNGRFAMIGFVSLLAMEVITGHGIVGWLLSL

Experiments:
[1] = biological target: T1, N-terminally FLAG-tagged Psb34 (Synechocystis sp. PCC 6803); assay: affinity purification with mass spectrometry; FLAG-Psb34 pull-down (anti-FLAG M2 affinity gel) from β-DDM-solubilised membranes of FLAG-Psb34/∆Psb34 cells exposed to high light for 2 h; whole preparation acetone-precipitated, trypsin digest, LC-MS/MS
[2] = biological target: T2, C-terminal FLAG-tagged Psb28 (Synechocystis sp. PCC 6803); assay: affinity purification with mass spectrometry; Psb28-FLAG preparation (isolated earlier, Bečková et al. 2017) separated by 2D-CN/SDS-PAGE, Coomassie Blue stain, designated proteins determined by MS; 0.5 µg Chl loaded

Molecule | binding [1] | binding [2]
PsbH (from UniProt P14835 1-64) | binds | 
CP47 (from UniProt P05429 1-507) | binds | 
Psb35 protein (Synechocystis sp. PCC 6803) | no binding | 
CP43 (from UniProt P09193 1-460) | binds | 
B1 |  | binds
B2 | binds | 
B3 | binds | 
B4 | binds | 
B5 | binds | 
B6 | no binding | 
B7 | no binding | 
